In US8580516B2, “Methods and compositions for direct detection of DNA damage” (University of Chicago, priority 2008, dated 2013):

System: HL60 and K562 myeloid cell lines
Experiment: Staining of fixed tissue culture cells treated with FeSO4/H2O2 (hydroxyl radicals)
Assay type: cell-based
Conditions: for binding after treatment with hydroxyl radicals: 100 μM FeSO4 and 100 μM H2O2, highest intensity in the nucleus; for background in control cells: fixed control cells

SMILES	binding after treatment with hydroxyl radicals	background in control cells
NOCC(=O)NNC(=O)CCCC[C@@H]1SC[C@@H]2NC(=O)N[C@@H]21 [ARP, N-(aminooxyacetyl)-N′-(D-biotinoyl) hydrazine]	enhanced binding	moderate background
NOCC(=O)NNC(=O)CSCC(=O)Nc1ccc2c(c1)C(=O)OC21c2ccc(O)cc2Oc2cc(O)ccc21 [FARP, 5-(((2-(carbohydrazino)-methyl)thio)acetyl)aminofluorescein, aminooxyacetyl hydrazide]	enhanced binding	moderate background
